Laboratory results: PubChem BioAssay AID686943 (Drosophila RNAi Screening Center, 2013)
Purpose: 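Fly genes whose loss alters ERK activation after insulin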 (primary screen). System: Drosophila S2R+ haemocyte-like cells expressing YFP-tagged ERK (Rolled). Knock-down reagent: long dsRNA against Drosophila genes. Challenge: insulin stimulation versus unstimulated cells; dose and duration not given. Measured: 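Antibody staining for doubly phosphorylated ERK divided by ERK-YFP signal, as plate z-scores, in insulin-treated and untreated cells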. Reading the numbers: replicate 1, z-score of dpERK with insulin: higher = more active ERK per ERK-YFP after insulin.
The deposit covers about 23,000 reagents; below is a random part of those that have a named target and a result. 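Extra replicates exist only for a retested subset of genes; insulin dose and duration not given; both raised and lowered dpERK matter.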 The numbers tell different reagents against one gene apart. Further read-outs or replicates are left out here. Reagent sequences are not shown. Not stated in the record: the amount of reagent, the time to read-out.

With knock-down of PH4alphaSG1, the screen gave replicate 1, z-score of dpERK with insulin -0.27.
CG11714 scored replicate 1, z-score of dpERK with insulin -1.05.
After knock-down of CG11598, the record shows replicate 1, z-score of dpERK with insulin 0.15.
Against Gr9a, the entry reads replicate 1, z-score of dpERK with insulin 0.25.
CG18754 scored replicate 1, z-score of dpERK with insulin 1.14.
After knock-down of Vps53, the record shows replicate 1, z-score of dpERK with insulin 1.31.
Silencing of RIOK2 resulted in: replicate 1, z-score of dpERK with insulin 0.24.
Against Ca-alpha1T #1 the deposit lists replicate 1, z-score of dpERK with insulin -0.11.
For Ca-alpha1T #2, the entry reads replicate 1, z-score of dpERK with insulin 0.02.
For Ca-alpha1T #3, the values are replicate 1, z-score of dpERK with insulin -0.43.
With knock-down of Ca-alpha1T #4 the results were replicate 1, z-score of dpERK with insulin -0.3.
Depletion of Ca-alpha1T #5 came out at: replicate 1, z-score of dpERK with insulin -0.1.

4 entries already listed, arranged by “replicate 1, z-score of dpERK with insulin”, ascending.
CG11714 — replicate 1, z-score of dpERK with insulin = -1.05
PH4alphaSG1 — replicate 1, z-score of dpERK with insulin = -0.27
CG11598 — replicate 1, z-score of dpERK with insulin = 0.15
Gr9a — replicate 1, z-score of dpERK with insulin = 0.25

Continued.
MFS18 gave replicate 1, z-score of dpERK with insulin -0.31.
Against dpr7, the values are replicate 1, z-score of dpERK with insulin -1.18.
Prosalpha3T scored replicate 1, z-score of dpERK with insulin 0.51.
After knock-down of CG18596, the screen gave replicate 1, z-score of dpERK with insulin 0.1.
After knock-down of Ocrl, the screen gave replicate 1, z-score of dpERK with insulin 0.11.
For CG5080, the values are replicate 1, z-score of dpERK with insulin -0.15.
Gr36c scored replicate 1, z-score of dpERK with insulin 0.34.
CG10494 scored replicate 1, z-score of dpERK with insulin 0.07.
With knock-down of CG3081 the results were replicate 1, z-score of dpERK with insulin 0.29.
